Test system: Cav3.1 protein
Assay: Western blot of Cav3.1 protein in fractions of HEK-293/Cav3.1 cells expressing γ subunits
Assay type: cell-based
Conditions: HEK-293/Cav3.1 cell fractions and total

B1: γ6L: rat calcium channel γ6 subunit, long isoform (AF361343), SEQ ID NO:48 (protein, listed as Rattus norvegicus)
chain: MMWSNFFMQEEDRRRTAVGRRRAQEQQNLGLTPEREGKIKLGLLVAIVGATLAVLAVGTEFWVELNTYKTNGSAVCEAAHLGLWKVCIKRLWQADVPAGRETCGPAELPGEANCTYFKFFTTGENAHIFQRTTKKEVNLAAAVIAVLGLTAMALGCLCVIMVLSKGAEFLLRLGAVCFGLSGLLLFVSLEVFRHSVRALLQGVNPETPPAPRLAYEYSWSLGCGVGAGLILLLGGVCFLLLTLPSWPWRSLCPKRGGPTA
Effect on Cav3.1 protein expression: no down-regulation

B2: γ4: rat calcium channel γ4 subunit (AF361341), SEQ ID NO:47 (protein, listed as Rattus norvegicus)
chain: MVRCDRGLQMLLTTAGAFAAFSLMAIAIGTDYWLYSSAHICNGTNLTMDDGPPPRRARGDLTHSGLWRVCCIEGIYKGHCFRINHFPEDNDYDHDSSEYLLRIVRASSVFPILSTILLLLGGLCIGAGRIYSRKNNIVLSAGILFVAAGLSNIIGIIVYISSNTGDPSDKRDEDKKNHYNYGWSFYFGALSFIVAETVGVLAVNIYIEKNKELRFKTKREFLKASSSSPYSRMPSYRYRRRRSRSSSRSTEASPSRDASPVGLKITGAIPMGELSMYTLSREPLKVTTAASYSPDQDAGFLQMHDFFQQDLKEGFHVSMLNRRTTPV
Effect on Cav3.1 protein expression: No statistically significant effect

Reference: patent US8022177B2, “Peptides and calcium regulation in mammalian cells” (The Board of Trustees of the University of Illinois, priority 2005, dated 2011)
